# Data from ChEMBL document CHEMBL4513141, “CO-ADD screening of NIH (USA) - Clinical Collection” (2021).
# Several values for one entry are separate records, joined by “and”; a condition that tells them apart may be missing. Identical values can stand only once. The list shows a part of the results. Potency and affinity values are given separately.
# Test system: Pseudomonas aeruginosa
# Details: Concentration 20 uM, ASSAY_TEST Inhibition of Bacterial Growth, detection method Absorption (OD600), MEDIA CAMHB, plate type 384well, NBS, CORNING #3640, time 18 hr
SMILES,Inhibition,Inhibition (20 µM)
CC(=O)SCC(Cc1ccccc1)C(=O)NCC(=O)OCc1ccccc1 (centres undefined) [RACECADOTRIL],11.06%,–
CN1CCc2cc(Cl)c(O)cc2[C@@H](c2ccccc2)C1.Cl,17.85%,–
Nc1nc(O)c2ncn(CCC(CO)CO)c2n1 [PENCICLOVIR],16.28%,–
CC[C@H](C)C(=O)O[C@H]1C[C@H](O)C=C2C=C[C@H](C)[C@H](CC[C@@H](O)C[C@@H](O)CC(=O)[O-])[C@H]21.[Na+] [PRAVASTATIN SODIUM],24.13%,–
Br.Br.O=C1CC2(CCCC2)CC(=O)N1CCNCC1COc2ccccc2O1 (centres undefined),13.7%,–
C[C@]12CCC(=O)C=C1CC[C@@H]1[C@@H]2[C@@H](O)C[C@@]2(C)[C@H]1CC[C@]2(O)C(=O)CO [HYDROCORTISONE],10.83%,–
O.OC[C@H]1O[C@@H](n2cnc3c(NC4CCCC4)nc(Cl)nc32)[C@@H](O)C1O (some centres undefined),10.94%,–
CCN1CCC[C@H]1CNC(=O)c1c(O)c(Cl)cc(Cl)c1OC [RACLOPRIDE],11.03%,–
CSc1ccc2c(c1)N(CCC1CCCCN1C)c1ccccc1S2.Cl (centres undefined) [THIORIDAZINE HYDROCHLORIDE],9.76%,–
CCCCC[C@H](O)/C=C/[C@H]1[C@H](O)CC(=O)[C@@H]1CCCCCCC(=O)O [ALPROSTADIL],6.38%,–
CC(C)Cc1ccc(C(C)C(=O)O)cc1 (centres undefined) [IBUPROFEN],12.43%,–
COC(=O)CCc1ccc(OCC(O)CNC(C)C)cc1.Cl (centres undefined) [ESMOLOL HYDROCHLORIDE],7.89%,–
Br.CN(C)CCCC1(c2ccc(F)cc2)OCc2cc(C#N)ccc21 (centres undefined) [CITALOPRAM HYDROBROMIDE],20.74%,–
O=C1[C@H](CC[C@H](O)c2ccc(F)cc2)[C@@H](c2ccc(O)cc2)N1c1ccc(F)cc1 [EZETIMIBE],24.27%,–
CN(C)CCN(Cc1ccccc1)c1ccccn1.Cl [TRIPELENNAMINE HYDROCHLORIDE],4.49%,–
Cc1cnc(C(=O)NCCc2ccc(S(=O)(=O)NC(=O)NC3CCCCC3)cc2)cn1 [GLIPIZIDE],16.96%,–
O=C(O)COCCN1CCN([C@H](c2ccccc2)c2ccc(Cl)cc2)CC1 [LEVOCETIRIZINE],6.8%,–
CN(C)CC[C@@H](c1ccc(Br)cc1)c1ccccn1.O=C(O)/C=C\C(=O)O [DEXBROMPHENIRAMINE MALEATE],6.71%,–
CCCN1CCCC[C@H]1C(=O)Nc1c(C)cccc1C.Cl [ROPIVACAINE HYDROCHLORIDE],18.3%,–
CN(C/C=C/C#CC(C)(C)C)Cc1cccc2ccccc12.Cl [TERBINAFINE HYDROCHLORIDE],9.15%,–
COC(=O)C1=C(C)NC(C)=C(C(=O)OCC(C)C)C1c1ccccc1[N+](=O)[O-] (centres undefined) [NISOLDIPINE],32.31%,–

SMILES,Inhibition,Inhibition (20 µM)
C#C[C@]1(O)CC[C@H]2[C@@H]3CCc4cc(OC)ccc4[C@H]3CC[C@@]21C [MESTRANOL],11.86%,–
COc1cc([C@@H]2c3cc4c(cc3[C@@H](O[C@@H]3O[C@@H]5CO[C@@H](C)O[C@H]5[C@H](O)[C@H]3O)[C@H]3COC(=O)[C@H]23)OCO4)cc(OC)c1O [ETOPOSIDE],3.25%,–
O=C1CCc2ccc(OCCCCN3CCN(c4cccc(Cl)c4Cl)CC3)cc2N1 [ARIPIPRAZOLE],14.8%,–
Cl.O.O=C(c1ccc(F)cc1)C1CCN(CCn2c(=S)[nH]c3ccccc3c2=O)CC1,-10.55%,–
COc1ccc2[nH]c([S+]([O-])Cc3ncc(C)c(OC)c3C)nc2c1 (centres undefined) [OMEPRAZOLE],9.59%,–
CN(CCOc1ccc(CC2SC(=O)NC2=O)cc1)c1ccccn1.O=C(O)/C=C\C(=O)O (centres undefined) [ROSIGLITAZONE MALEATE],11.6%,–
"CCN(CC)C(=O)[C@]1(c2ccccc2)C[C@@H]1CN.Cl [1R,2S-MILNACIPRAN HYDROCHLORIDE]",7.22%,–
CCc1cccc2c3c([nH]c12)C(CC)(CC(=O)O)OCC3 (centres undefined) [ETODOLAC],-2.53%,–
CC1=C(CC(=O)O)c2cc(F)ccc2/C1=C\c1ccc([S+](C)[O-])cc1 (centres undefined),6.36%,–
Cl.NC1CCN(c2cccc(Cl)n2)CC1,7.45%,–
CNCCCN1c2ccccc2CCc2ccccc21.Cl [DESIPRAMINE HYDROCHLORIDE],6.47%,–
Cl.O=c1n(CCCN2CCN(c3cccc(Cl)c3)CC2)nc2ccccn12 [TRAZODONE HYDROCHLORIDE],14.2%,–
N=c1cc(N2CCCCC2)nc(N)n1O,11.03%,–
COc1ccc(CN2CCN(C(c3ccc(F)cc3)c3ccc(F)cc3)CC2)c(OC)c1OC.Cl.Cl,6.79%,–
CCC1=C(C)CN(C(=O)NCCc2ccc(S(=O)(=O)NC(=O)N[C@H]3CC[C@H](C)CC3)cc2)C1=O [GLIMEPIRIDE],13.41%,–
CCS(=O)(=O)CCn1c([N+](=O)[O-])cnc1C [TINIDAZOLE],18.84%,–
CC(=O)Nc1ccc(CC(=O)O)cc1 [ACTARIT],-13.14%,–
Cc1nc2n(c(=O)c1CCN1CCC(c3noc4cc(F)ccc34)CC1)CCCC2 [RISPERIDONE],4.12%,–
OCc1cc(C(O)CNCCCCCCOCCCCc2ccccc2)ccc1O (centres undefined) [SALMETEROL],18.07%,–
CCOC(=O)OC(C)OC1=C(C(=O)Nc2ccccn2)N(C)S(=O)(=O)c2ccccc21 (centres undefined) [AMPIROXICAM],53.02%,–
O=C(O)c1cc(-c2ccc(F)cc2F)ccc1O [DIFLUNISAL],7.67%,–

SMILES,Inhibition,Inhibition (20 µM)
CCCCNC(=O)NS(=O)(=O)c1ccc(C)cc1 [TOLBUTAMIDE],8.36%,–
CN1CCN(CCCN2c3ccccc3Sc3ccc(Cl)cc32)CC1.O=C(O)/C=C\C(=O)O.O=C(O)/C=C\C(=O)O [PROCHLORPERAZINE MALEATE],14.71%,–
c1ccc2[nH]c(-c3cscn3)nc2c1 [THIABENDAZOLE],16.13%,–
COc1cc(C(=O)NC2CCCNC2)cc(OC)c1OC (centres undefined) [TROXIPIDE],16.64%,–
CC(C)(S)C(N)C(=O)O (stereo not drawn) [DL-PENICILLAMINE],10.86%,–
CN1C(C(=O)Nc2ccccn2)=C(O)c2ccccc2S1(=O)=O.O,7.03%,–
C#C[C@]1(O)CC[C@H]2[C@@H]3CCC4=CC(=O)CC[C@@H]4[C@H]3CC[C@@]21CC [LEVONORGESTREL],11.18%,–
CC[C@@]1(O)C(=O)OCc2c1cc1n(c2=O)Cc2cc3c(CN(C)C)c(O)ccc3nc2-1.Cl [TOPOTECAN HYDROCHLORIDE],11.68%,–
Cc1ncc([N+](=O)[O-])n1CC(O)CCl (centres undefined) [ORNIDAZOLE],9.89%,–
CN(C)CCCN1c2ccccc2Sc2ccc(Cl)cc21.Cl [CHLORPROMAZINE HYDROCHLORIDE],8.66%,–
CC(Cc1ccc(O)c(O)c1)(NN)C(=O)O.O (centres undefined),12.51%,–
Cc1[nH]c(=O)c(C#N)cc1-c1ccncc1 [MILRINONE],42.18%,–
CS(=O)(=O)c1ccc(C2=C(c3ccccc3)C(=O)OC2)cc1 [ROFECOXIB],27.92%,–
CCC1=C[C@H]2CN(C1)Cc1c([nH]c3ccccc13)[C@@](C(=O)OC)(c1cc3c(cc1OC)N(C)[C@H]1[C@@](O)(C(=O)OC)[C@H](OC(C)=O)[C@]4(CC)C=CCN5CC[C@]31[C@@H]54)C2.O=C(O)C(O)C(O)C(=O)O.O=C(O)C(O)C(O)C(=O)O,23.87%,–
NS(=O)(=O)c1cc2c(cc1Cl)N=CNS2(=O)=O [CHLOROTHIAZIDE],3.32%,–
CC(=O)O[C@@]12CO[C@@H]1C[C@H](O)[C@@]1(C)C(=O)[C@H](O)C3=C(C)[C@@H](OC(=O)[C@H](O)[C@@H](NC(=O)OC(C)(C)C)c4ccccc4)C[C@](O)([C@@H](OC(=O)c4ccccc4)[C@H]21)C3(C)C,16.38%,–
COc1cc(C(=O)NS(=O)(=O)c2ccccc2C)ccc1Cc1cn(C)c2ccc(NC(=O)OC3CCCC3)cc12 [ZAFIRLUKAST],41.4%,–
C[C@H]1[C@@H](OC(=O)CCC(=O)O)O[C@@H]2O[C@@]3(C)CC[C@H]4[C@H](C)CC[C@@H]1[C@@]24OO3,-2.78%,–
COc1ccc(CC2c3cc(OC)c(OC)cc3CC[N+]2(C)CCC(=O)OCCCCCOC(=O)CC[N+]2(C)CCc3cc(OC)c(OC)cc3C2Cc2ccc(OC)c(OC)c2)cc1OC.O=S(=O)(O)c1ccccc1 (centres undefined),8.38%,–
NS(=O)(=O)c1cc(C(=O)O)c(NCc2ccco2)cc1Cl [FUROSEMIDE],20.35%,–
CC1(C)O[C@@H]2C[C@H]3[C@@H]4CCC5=CC(=O)C=C[C@]5(C)[C@@]4(F)[C@@H](O)C[C@]3(C)[C@]2(C(=O)CO)O1 [TRIAMCINOLONE ACETONIDE],16.43%,–

SMILES,Inhibition,Inhibition (20 µM)
C[C@@H]1C[C@H]2[C@@H]3CCC4=CC(=O)C=C[C@]4(C)[C@@]3(F)[C@@H](O)C[C@]2(C)[C@@]1(O)C(=O)CO [DEXAMETHASONE],–,2.35% and 9.21%
C[C@@H]1C[C@H]2[C@@H]3CCC4=CC(=O)C=C[C@]4(C)[C@@]3(F)[C@@H](O)C[C@]2(C)[C@H]1C(=O)CO [DESOXIMETASONE],8.44%,–
CN(C)CCCN1c2ccccc2CCc2ccccc21.Cl [IMIPRAMINE HYDROCHLORIDE],13.21%,–
CC(C)NCC(O)c1ccc(NS(C)(=O)=O)cc1.Cl (centres undefined) [SOTALOL HYDROCHLORIDE],10.81%,–
CCCCC1=NC2(CCCC2)C(=O)N1Cc1ccc(-c2ccccc2-c2nnn[nH]2)cc1 [IRBESARTAN],1.45%,–
CC(C)(C(=O)c1cccnc1)c1cccnc1 [METYRAPONE],18.6%,–
C#C[C@]1(O)CC[C@H]2[C@@H]3[C@H](C)CC4=C(CCC(=O)C4)[C@H]3CC[C@@]21C [TIBOLONE],10.6%,–
CC(=O)C1(O)CCC2C3CC(C)C4=CC(=O)C=CC4(C)C3(F)C(O)CC21C (centres undefined),4.77%,–
Cc1ccsc1C(=CCCN1CCC[C@@H](C(=O)O)C1)c1sccc1C.Cl [TIAGABINE HYDROCHLORIDE],46.77%,–
CC(=O)O.CC(C)C[C@H](NC(=O)[C@@H](COC(C)(C)C)NC(=O)[C@H](Cc1ccc(O)cc1)NC(=O)[C@H](CO)NC(=O)[C@H](Cc1c[nH]c2ccccc12)NC(=O)[C@H](Cc1c[nH]cn1)NC(=O)[C@H]1CCC(=O)N1)C(=O)N[C@H](CCCNC(=N)N)C(=O)N1CCC[C@@H]1C(=O)NNC(N)=O,12.98%,–
CCCc1c(OCCCCc2nnn[nH]2)ccc(C(C)=O)c1O [TOMELUKAST],5.99%,–
CC(N)(Cc1ccc(O)c(O)c1)C(=O)O (stereo not drawn) [METHYLDOPA (RACEMIC)],18.91%,–
CCN(CC)CCOc1ccc(C(=C(Cl)c2ccccc2)c2ccccc2)cc1.O=C(O)CC(O)(CC(=O)O)C(=O)O [CLOMIPHENE CITRATE],10.02%,–
CN1CC(=O)N2[C@H](c3ccc4c(c3)OCO4)c3[nH]c4ccccc4c3C[C@@H]2C1=O,15.72%,–
Cl.O.O=C1N(c2ccccc2)c2ccccc2C1(Cc1ccncc1)Cc1ccncc1,12.37%,–
CCCCCCCCCCC[C@@H](C[C@@H]1OC(=O)[C@H]1CCCCCC)OC(=O)[C@H](CC(C)C)NC=O [ORLISTAT],39.77%,–
NNCCc1ccccc1.O=S(=O)(O)O [PHENELZINE SULFATE],11.1%,–
COc1ccccc1N1CCN(CC(O)COc2cccc3ccccc23)CC1 (centres undefined) [NAFTOPIDIL],8.59%,–
Cl.O.c1cnc(N2CCN(Cc3ccc4c(c3)OCO4)CC2)nc1,12.71%,–
Nc1nc(N)nc(-c2cc(Cl)ccc2Cl)n1.O=C(O)/C=C\C(=O)O [IRSOGLADINE MALEATE],4.22%,–
Cn1ccnc1S [METHIMAZOLE],18.29%,–
